This is one part of the list.

In the experiment the target is T1, OsSMF1 (Oryza sativa, UniProt Q6ZLB0 1-436).
T1 sequence: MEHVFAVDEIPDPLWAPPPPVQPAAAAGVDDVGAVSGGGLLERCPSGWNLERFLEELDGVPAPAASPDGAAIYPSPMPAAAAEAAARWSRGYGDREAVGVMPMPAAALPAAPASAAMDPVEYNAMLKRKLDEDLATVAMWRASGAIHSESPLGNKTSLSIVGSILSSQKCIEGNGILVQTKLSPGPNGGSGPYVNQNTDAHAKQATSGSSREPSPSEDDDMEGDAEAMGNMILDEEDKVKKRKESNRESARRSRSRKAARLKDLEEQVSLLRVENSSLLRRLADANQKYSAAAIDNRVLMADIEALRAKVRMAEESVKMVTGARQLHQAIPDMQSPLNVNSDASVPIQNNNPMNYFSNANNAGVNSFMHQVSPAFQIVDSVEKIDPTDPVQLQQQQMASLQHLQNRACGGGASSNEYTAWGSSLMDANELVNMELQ
Briefly: protein-binding microarray (RPBM); PBS, 2% BSA, 51.3 ng/ul salmon testes DNA, 50 uM zinc acetate, 200 nM TF, 25 C, 1 h; high values mean tight binding. Particulars: protein: recombinant; tags: N-terminal polyhistidine and DsRed monomer fusion (pET32a); chain copies: 2; label: CyDye5-dUTP incorporated in the synthesized complementary strand; 3' TTTTT single-stranded linker to array surface; dsDNA, one strand shown. In short, it runs like this:
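Transcription factors were made in E. coli BL21-CodonPlus as N-terminal fusions to a polyhistidine tag and DsRed, then purified on Ni–NTA. After primer extension with Cy5-dUTP and blocking with 2% BSA, a custom Agilent array was exposed for 1 h at 25 °C to 200 nM protein in PBS, 2% BSA, salmon testes DNA and 50 µM zinc acetate. Washed arrays were scanned on an Axon 4000B, and the binding signal is per-feature fluorescence intensity in arbitrary units.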
With “TCCATTGCATATAATTCAATTCATCGAAATCATGACATTTCGGAGTCACCTAGTGCAG”, the binding signal is 46400 fluorescence intensity (a.u.). On to “AGGGGTAGCAGCAGCAGAAACAGAAGCAGAGTGACAGGGACGGAGTCACCTAGTGCAG”, for which the binding signal was 3510 fluorescence intensity (a.u.).

Turning to “GTGCTGTACCACGTGGCATCTCCCCTCCATGTCCCAATCACGGAGTCACCTAGTGCAG”, the binding signal was 19900 fluorescence intensity (a.u.). Under “CGCTACGACTGGACTGACATACTCCTCGGAACCGGTGGTGCGGAGTCACCTAGTGCAG” stands 3490 fluorescence intensity (a.u.). Then “GTCTCAGATAAGACCACGTCGCTCTGCAACGTCGTAGTAGCGGAGTCACCTAGTGCAG”, with 3470 fluorescence intensity (a.u.); and “CTCCGCCTCCTCCTCCTCCCGTCCAGCCCGTATCGACGAGCGGAGTCACCTAGTGCAG”, with 4120 fluorescence intensity (a.u.). Then “GGTGTGTATTGACGCACCACGTATGTCTATCTTCTTTCGTCGGAGTCACCTAGTGCAG”, with 3820 fluorescence intensity (a.u.); and “AGAATCGGTTCCTTGCAGACGTGTTCGATCTGCTGGTGCCCGGAGTCACCTAGTGCAG”, with 6870 fluorescence intensity (a.u.); and “AGTAGTATTGGCTTGGGGTGTTGCCACGTCATCACCTGGTCGGAGTCACCTAGTGCAG”, with 55000 fluorescence intensity (a.u.). Take “GTTCGAGGGTGTATGTTGCACAAAGCGAAGAGTTAAGGGGCGGAGTCACCTAGTGCAG”: the binding signal is 8580 fluorescence intensity (a.u.). For “TTCGTCTTCTTGCTCGGTGACTAAGCTGGGTTAGGAGAGGCGGAGTCACCTAGTGCAG”, the binding signal was 3610 fluorescence intensity (a.u.). On to “TATATATTGATCGATGCGCCGGAGGGCGGAGAGGTGCATGCGGAGTCACCTAGTGCAG”, for which the binding signal is 3640 fluorescence intensity (a.u.). Regarding “ACAAAGTTGTACCAATAATAATTTCGGATCATTATCGGATCGGAGTCACCTAGTGCAG”, the binding signal was 13400 fluorescence intensity (a.u.). Regarding “ACCTCTCGCTCCACTCAGCCGCCGCCCCTCGCCGTCGCCGCGGAGTCACCTAGTGCAG”, the binding signal was 3520 fluorescence intensity (a.u.).

For the sequence “TTCTTTAGCCAGCGTTACATATGATATGAATAAAGTTACACGGAGTCACCTAGTGCAG”, the binding signal is 31200 fluorescence intensity (a.u.). As for “GTGCTTGATGTCGGCGCCGACGCTGGCGACGGGGTGGCCGCGGAGTCACCTAGTGCAG”, the binding signal was 15700 fluorescence intensity (a.u.). With “TCATCGCCAGTCGTCACTCCGGCGACGGTGACCACCATCTCGGAGTCACCTAGTGCAG”, the binding signal was 4040 fluorescence intensity (a.u.).

As for “AAAATGCTATGCATTTGATGCTTCCATGCAAGAAAGAGACCGGAGTCACCTAGTGCAG”, the binding signal is 37600 fluorescence intensity (a.u.). Regarding “GGCCCACCTGTCATACCTATCCTCAAACCAATCTGCCAATCGGAGTCACCTAGTGCAG”, the binding signal was 4090 fluorescence intensity (a.u.).

Consider “AGAGGGAGTGGCGGTGCCGTGCAAAGCTAGCTATACGTGGCGGAGTCACCTAGTGCAG”, for which the binding signal was 4300 fluorescence intensity (a.u.).

“CCCAACTCTGTAGACTGTAGTCTGGACTTCCACGTCACGTCGGAGTCACCTAGTGCAG”: the binding signal was 23100 fluorescence intensity (a.u.). As to “GGCTAACGGACCTCCACCCAACCCACATACCCCAATCGTGCGGAGTCACCTAGTGCAG”, the binding signal was 3370 fluorescence intensity (a.u.). Then “ATCAGGTGCATTTCTAATACACGTAGGGCACTTAACAAAGCGGAGTCACCTAGTGCAG”, with 3500 fluorescence intensity (a.u.); and “AAGAACCCAACAGTGACTAGAGCATTGGAATTTGGAACTTCGGAGTCACCTAGTGCAG”, with 3190 fluorescence intensity (a.u.); and “TAACCAGCTTGACAGGCTCGATGTCGGCCGTGTCGTCAGCCGGAGTCACCTAGTGCAG”, with 3960 fluorescence intensity (a.u.). Take “CGTTTCATGCAATCTGGCAAGAACAAAGTTTGTCATACACCGGAGTCACCTAGTGCAG”: the binding signal was 3370 fluorescence intensity (a.u.).

For the sequence “ACCACACCTTGTCAAAACTTCAGTAACAGCAGAAGTTACACGGAGTCACCTAGTGCAG”, the binding signal was 3140 fluorescence intensity (a.u.).

As to “ATTAGGAGTTATTAATTGTAGTTAAAAGGCTGACACGTGGCGGAGTCACCTAGTGCAG”, the binding signal is 25300 fluorescence intensity (a.u.). Turning to “CCGGGCTACCATCGCGGCGACGAAACGTGCATCATCATCCCGGAGTCACCTAGTGCAG”, the binding signal was 3850 fluorescence intensity (a.u.).

As for “GCGCAGGCAACCACCCCACCCTTCTTCTCGAAACCTCTTCCGGAGTCACCTAGTGCAG”, the binding signal was 3290 fluorescence intensity (a.u.). “GAACGCTCTCGCGAAACCAAACAGCGACACCGTGCAATATCGGAGTCACCTAGTGCAG”: the binding signal is 3540 fluorescence intensity (a.u.). With “CATGTAACATCTTCTACCTAGAAAATGGCGAAAGACGAGACGGAGTCACCTAGTGCAG”, the binding signal is 24100 fluorescence intensity (a.u.). As to “TCGATCTGACGCGGATTCTGCTCATTCCAAATCGAATCCACGGAGTCACCTAGTGCAG”, the binding signal is 6070 fluorescence intensity (a.u.). Then “ATAGTGCCATACTATGACGCACGCAACGACGTACGTCAAACGGAGTCACCTAGTGCAG”, with 3660 fluorescence intensity (a.u.); and “TGGTACATGGTGTGCCCTACCGAGCTTAGTCAACCACTTTCGGAGTCACCTAGTGCAG”, with 3230 fluorescence intensity (a.u.). For “CTGAATGGGCCTCAATCCCAGCCCGTCCACGTGCATATATCGGAGTCACCTAGTGCAG”, the binding signal is 4760 fluorescence intensity (a.u.). As for “CTCCTACCTTCCCGTCGAAACGGCCATCTGGCACGTCTCGCGGAGTCACCTAGTGCAG”, the binding signal was 3220 fluorescence intensity (a.u.). Take “CTATGTGGTGGACGTGGGATACGCCGACGGTCGGGCTGAACGGAGTCACCTAGTGCAG”: the binding signal was 5060 fluorescence intensity (a.u.).

With “AGCTCTCGCTCCCGATGCCACACGCTGACGCTGTGCTCGTCGGAGTCACCTAGTGCAG”, the binding signal was 5190 fluorescence intensity (a.u.).

Consider “GCCTGAAATCCTGAATCCACATCATTCTATAGTCCCTGTCCGGAGTCACCTAGTGCAG”, for which the binding signal was 7060 fluorescence intensity (a.u.). Under “GTAAATATGACACATCCTAATAATCTAATCTAGCCGTCTACGGAGTCACCTAGTGCAG” stands 3540 fluorescence intensity (a.u.); under “CCTCCTCCTCAGCCCATGTACAGTGCGTTCCCCATTAGCTCGGAGTCACCTAGTGCAG”, 22800 fluorescence intensity (a.u.).
